Data as given in publication PMC9421128.
No constants are given. Whether binding was seen depends on the method and setting. In cells and extracts the contact can be indirect. Tags and fused reporters may be left off the sequences shown.

Experiments:
Assay in all cases: co-IP
[1] = target: FLAG-tagged HMPV M2-2 finer Δ3 deletion mutant Δ3-10 (human metapneumovirus strain Jpn03-1)
[2] = target: FLAG-tagged HMPV M2-2 finer Δ3 deletion mutant Δ3-5 (human metapneumovirus strain Jpn03-1)
[3] = target: FLAG-tagged HMPV M2-2 finer Δ3 deletion mutant Δ3-9 (human metapneumovirus strain Jpn03-1)

Measured: binding

B1: V5-tagged RIG-I CARD (V5-RIG-I CARD), expressed in HEK293T (domain or fragment, UniProt O95786 1-283)
chain: MTTEQRRSLQAFQDYIRKTLDPTYILSYMAPWFREEEVQYIQAEKNNKGPMEAATLFLKFLLELQEEGWFRGFLDALDHAGYSGLYEAIESWDFKKIEKLEEYRLLLKRLQPEFKTRIIPTDIISDLSECLINQECEEILQICSTKGMMAGAEKLVECLLRSDKENWPKTLKLALEKERNKFSELWIVEKGIKDVETEDLEDKMETSDIQIFYQEDPECQNLSENSCPPSEVSDTNLYSPFKPRNYQLELALPAMKGKNTIICAPTGCGKTFVSLLICEHHLK
no binding: [1] | [2] | [3]
